# Counter-ions that a name gives are not always drawn. The list shows a part of the results. The calls rarely recur for the same compound in another form.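 In K562 cells expressing nanoluciferase-fused kinases, luminescence was recorded at 4 h intervals between 2 and 18 h, normalized as percent of control with DMSO at 100% and a positive control at 0%. A significant (2 sigma) signal drop marks a time point as decreased. The authors' rule for a hit is not shown and takes in more than the number of time points.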
# Sequences of proteins named here, by UniProt entry; tags and fusion partners are left off.
# UniProt P07949, whole entry, looked up: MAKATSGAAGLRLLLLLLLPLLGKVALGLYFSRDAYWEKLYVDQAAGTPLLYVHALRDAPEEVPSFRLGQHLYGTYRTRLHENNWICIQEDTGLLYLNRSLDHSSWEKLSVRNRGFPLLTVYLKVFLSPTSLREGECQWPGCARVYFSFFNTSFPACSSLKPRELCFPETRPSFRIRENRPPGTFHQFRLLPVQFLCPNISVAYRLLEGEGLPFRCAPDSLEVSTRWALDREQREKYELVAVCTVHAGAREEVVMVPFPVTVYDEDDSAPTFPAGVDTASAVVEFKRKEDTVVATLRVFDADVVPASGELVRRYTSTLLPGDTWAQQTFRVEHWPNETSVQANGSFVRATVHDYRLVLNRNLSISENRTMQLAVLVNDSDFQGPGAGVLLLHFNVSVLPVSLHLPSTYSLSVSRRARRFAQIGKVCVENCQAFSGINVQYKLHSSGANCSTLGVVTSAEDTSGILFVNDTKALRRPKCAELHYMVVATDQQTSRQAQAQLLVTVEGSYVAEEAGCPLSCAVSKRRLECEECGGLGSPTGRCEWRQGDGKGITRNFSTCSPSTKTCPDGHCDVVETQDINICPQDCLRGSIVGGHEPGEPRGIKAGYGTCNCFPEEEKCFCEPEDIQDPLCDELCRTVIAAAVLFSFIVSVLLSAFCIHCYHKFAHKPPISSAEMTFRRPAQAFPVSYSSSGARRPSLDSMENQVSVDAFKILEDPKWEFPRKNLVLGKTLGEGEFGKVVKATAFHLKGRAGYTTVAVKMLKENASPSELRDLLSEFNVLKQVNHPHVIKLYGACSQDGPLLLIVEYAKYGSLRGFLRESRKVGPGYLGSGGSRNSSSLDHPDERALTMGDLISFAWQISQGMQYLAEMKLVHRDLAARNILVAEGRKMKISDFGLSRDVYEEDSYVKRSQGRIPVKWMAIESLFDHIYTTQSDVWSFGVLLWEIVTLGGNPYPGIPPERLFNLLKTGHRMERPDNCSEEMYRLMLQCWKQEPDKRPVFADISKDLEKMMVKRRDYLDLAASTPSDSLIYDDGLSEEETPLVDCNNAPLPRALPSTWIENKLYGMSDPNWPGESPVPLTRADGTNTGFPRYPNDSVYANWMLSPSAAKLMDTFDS
# Biological target: RET (UniProt P07949)
# Assay: number of time points (of 5) at which kinase-Nluc abundance scored as decreased, DMSO-normalised (count); higher = more persistent destabilization
# Conditions: K562; 2-18 h
row,Compound,number of time points
1,C[C@@H](c1ccc2nccn2c1)n1nnc2ncc(-c3cnn(C)c3)nc21 [Savolitinib] (10 µM),0
2,CN1C(=O)C(Cc2c[nH]c3ccccc23)NC1=S (stereo not drawn) [Necrostatin-1] (10 µM),0
3,C[C@@H]1C(=O)O[C@H](C)[C@H]1C[C@@H](O)[C@](C)(O)[C@H]1CC[C@@]2(O)C3=CC(=O)[C@@H]4C[C@@H](O)[C@@H](O)C[C@]4(C)[C@H]3CC[C@]12C [Cyasterone] (10 µM),0
4,CC(c1ccc(-c2cnc3c(-c4ccc(S(N)(=O)=O)c5ccccc45)cnn3c2)cc1)N1CCCC1 (stereo not drawn) (2.5 µM),0
5,CCn1c(=O)c(-c2ccc(-c3cncc(C)n3)cc2Cl)cc2cnc(NCCC3CCN(C)CC3)nc21 (10 µM),0
6,"O=C(O)c1cc(O)ccc1O [2,5-Dihydroxybenzoic acid] (10 µM)",0
7,CC(=NNC(=O)c1ccc(C)c(Br)c1)c1ccc(O)cc1O [mTOR inhibitor-1] (2.5 µM),0
8,Nc1ncnc2c1ncn2[C@@H]1O[C@H](CO)C[C@H]1O [Cordycepin] (10 µM),0
9,C=CC(=O)Nc1cc2c(Nc3ccc(OCc4ccccn4)c(Cl)c3)ncnc2cc1OCCN1CCOCC1 (10 µM),0
10,Cc1ccc(S(=O)(=O)Nc2ccccc2C=Nc2ccccc2NS(=O)(=O)c2ccc(C)cc2)cc1 (10 µM),0
11,CCOc1cc(C(=O)N2CCC(N3CCN(C)CC3)CC2)ccc1Nc1ncc2c(n1)N(C1CCCC1)c1ccccc1C(=O)N2C (10 µM),0
12,Cn1cnc(-c2cc3nccc(Oc4ccc(NC(=S)NC(=O)Cc5ccccc5)cc4F)c3s2)c1 [MGCD-265 analog] (10 µM),0
13,Cn1c(=O)c(F)c(Nc2ccc(I)cc2F)c2c(=O)n(C[C@@H](O)CO)cnc21 (10 µM),0
14,Nc1ncnc2c1c(-c1ccc(Oc3ccccc3)cc1)nn2C1CCNCC1 [N-piperidine Ibrutinib (hydrochloride)] (10 µM),0
15,Cc1csc(-c2nnc(Nc3ccc(Oc4ncccc4-c4ccnc(N)n4)cc3)c3ccccc23)c1 (2.5 µM),0
16,O=C(O)CCc1ccc(O)c(O)c1 [Dihydrocaffeic acid] (10 µM),0
17,COCCOc1cnc(Sc2cc(C)c(-c3csc(NC(=O)c4ccncc4)n3)c(C)c2)cn1 [T-1101 (tosylate)] (2.5 µM),0
18,Cc1cc(NC(=O)c2cccc(NC(=O)/C=C/CN(C)C)c2)ccc1Nc1nccc(-c2cccnc2)n1 (10 µM),0
19,Cc1c(NC(=O)OC[C@@H]2COCCN2)cn2ncnc(Nc3ccc4c(cnn4Cc4cccc(F)c4)c3)c12 (10 µM),0

row,Compound,number of time points
1,Cc1ccc(-c2c(C(=O)CF)n(CCCO)c3ncnc(N)c23)cc1 (10 µM),0
2,Cc1ccc(-c2c(C(=O)CCl)n(CCCO)c3ncnc(N)c23)cc1 (10 µM),4
3,COc1cc(F)c(F)c(Nc2ccc(I)cc2F)c1NS(=O)(=O)C1(C[C@H](O)CO)CC1 [Refametinib] (10 µM),0
4,CCN(CC)c1ccc2cc(C(=O)N3CCN(C(=O)C4=Cc5c(Br)cccc5S4(=O)=O)CC3)c(=O)oc2c1 (2 µM),0
5,COc1ccc(C(=C2C(=O)Nc3ccccc32)c2ccc(OC)cc2)cc1 (10 µM),0
6,N#Cc1ccc2ncnc(NC3CCC(N4CCOCC4)CC3)c2c1 (stereo not drawn) (10 µM),0
7,NCCN1CCN(C/C=C/C(=O)N2CCC[C@@H](n3nc(-c4ccc(Oc5ccccc5)cc4)c4c(N)ncnc43)C2)CC1 [Ibrutinib-MPEA] (10 µM),0
8,CN(CC(=O)N(Cc1ccc(C2CCCCC2)cc1)c1ccc(C(=O)O)cc1)S(=O)(=O)c1c(F)c(F)c(F)c(F)c1F (2.5 µM),0
9,CCn1c(C(=O)N(C2CC2)C2CC2)cc2c3c(ncn3C)c(Nc3cc(C)n(C)n3)nc21 (10 µM),0
10,CC(C)CN(CC(=O)N1CCN(CC(OCc2ccc3ccccc3c2)c2ccc(Cl)cc2Cl)CC1)CC(C)C (stereo not drawn) [LYN-1604 (dihydrochloride)] (2.5 µM),0
11,COc1ccc2[nH]cc(/C=C3\C(=O)Nc4ccc(NC(=O)CCN5CCCCC5)cc43)c2c1 (2.5 µM),0
12,CC(C)=CC(=O)CCC(=O)N1CCN(Cc2cc3nc(-c4cccc5[nH]ncc45)nc(N4CCOCC4)c3s2)CC1 (10 µM),0
13,O=C(NCCO)c1ccc2c(c1)nc(Nc1cccc(Cl)c1)c1ccncc12 [CK2 inhibitor 2] (10 µM),0
14,COc1ccc(CC(=O)Nc2nc3c(s2)CCc2ccccc2-3)cc1OC (10 µM),0
15,c1cc2c(cc1O[C@H]1OC[C@H]3[C@@H]1CO[C@@H]3c1ccc3c(c1)OCO3)OCO2 [Sesamolin] (10 µM),0
16,OCCNC1CCCc2c1[nH]c1ccc(-c3ccccc3)cc21 (stereo not drawn) (2.5 µM),0
17,CNc1nc(Nc2cnn(C3CCN(C4COC4)CC3F)c2Cl)ncc1C(F)(F)F (stereo not drawn) (10 µM),0
18,Cc1cc2cc(Nc3ccnc(Nc4ccc5[nH]c(C)cc5c4)n3)ccc2[nH]1 (2.5 µM),0
19,CC(C)(C)NC(=O)c1cncn1C1CCN(c2ccc(-c3nnc(C(F)(F)F)o3)cn2)CC1 (10 µM),0

# In the list so far, these have a thiophene ring, fused or not.
row,Compound,number of time points
12,Cn1cnc(-c2cc3nccc(Oc4ccc(NC(=S)NC(=O)Cc5ccccc5)cc4F)c3s2)c1 [MGCD-265 analog] (10 µM),0
15,Cc1csc(-c2nnc(Nc3ccc(Oc4ncccc4-c4ccnc(N)n4)cc3)c3ccccc23)c1 (2.5 µM),0
12,CC(C)=CC(=O)CCC(=O)N1CCN(Cc2cc3nc(-c4cccc5[nH]ncc45)nc(N4CCOCC4)c3s2)CC1 (10 µM),0

# Reference: the supplement of paper PMC12823440, “Inhibitors supercharge kinase turnover through native proteolytic circuits” (Nature, 2025)
